# Experimental data reported in PubChem BioAssay AID2685 (National Center for Advancing Translational Sciences (NCATS), 2010).
# Among all 320,000 compounds or so, about 2,100 (0.66%) were called active. Inconclusive results, whose numbers are uncertain, are shown with a selection of clear calls. Calls follow the shape of the dose curve; as a rule, active = well fitted inhibition curve with a large enough effect in the signal ratio, with a control signal flat (not every such curve was filed as active); inconclusive = small, poorly fitted or top-dose-only effect, or effect the other way, or a change in a side signal; inactive = flat fitted curve, though single readings scatter; the % refers to the signal ratio. A potency beside an inconclusive call is a rough fit, not a confirmed value.
# Assay: qHTS Assay for Lipid Storage Modulators in Drosophila S3 Cells
# Conditions: BODIPY lipid droplet fluorescence, 18-24 h, cells fed with added oleic acid; lipid storage change, negative = inhibition: at 46.1 µM (top of the series) unless noted
# Excerpt: NIH Molecular Libraries Probe Production Centers Network [MLPCN] NIH Chemical Genomics Center [NCGC] MLPCN Grant: 1 R03 MH085686-01 Assay Submitter (PI): Beller, Mathias; Max-Planck-Institut fur Biophysikalische Chemie NCGC Assay Overview: Storing lipids as a reservoir for energy or the anabolism of elementary metabolites is a common feature of probably all cells and is conserved from bacteria to humans. The universal cellular lipid storage organelle is the so-called lipid storage droplet (LD). Although ubiquitous, LDs share a simple structure composed of a hydrophobic core that harbors the storage lipids, which is shielded by a droplet-specific phospholipid monolayer to which proteins are attached. The current model of LD biogenesis involves an incorporation of the lipid core into the membrane leaflets of the endoplasmic reticulum (ER) followed by a subsequent budding-like maturation of a LD, which ultimately pinches off. Once released, LD volume can increase by localized lipogenesis or fusion of existing droplet. Storage lipids are re-mobilized enzymatically by lipase activity. Lipase regulation in the adipocyte is heavily studied and involves multiple components including catecholamine signaling, the LD-associated proteins Perilipin and comparative gene identification (CGI-58) and at least two lipases named hormone sensitive lipase (HSL) and adipocyte triglyceride lipase (ATGL). LD regulation outside of the adipocyte is poorly understood and only few components are known. However, there is an urgent need to learn more about ectopic fat depots as mislocalized storage of lipids, for example in the liver or muscle, is an eminent health problem associated with insulin resistance or the metabolic syndrome. We developed a laser-scanning cytometer assay to enable 1,536-well screening and combined the results of the small molecules screen with an RNAi database based on lipid storage.
# Triacsin C (Sigma-Aldrich T-4540), an inhibitor of long-chain fatty acyl CoA synthetase that blocks synthesis of triglycerides, was used as a positive control for lipid under-storage. A total of 23 nL of compound solution of different concentrations were transferred to the assay plates using a Kalypsys pin tool equipped with a 1,536-pin array containing 10-nL slotted pins (FP1S10, 0.457-mm diameter, 50.8 mm long; V&P Scientific). One microliter of oleic acid (400 uM) was added, and the plate was lidded with stainless steel rubber gasket lined lids containing pinholes. […] Fluorescence was detected by excitation of the fluorophores with a 488-nm laser on an Acumen Explorer (TTP Lab Tech). The total intensity in channel 2 (500-530 nm) reflected lipid droplet accumulation. Cells were detected using channel 3 (575-640 nm) with 5-um width and 100-um depth filters. The ratio of the number of objects in PMT channel 2 over the number of objects in PMT channel 3 was also calculated. Percent activity was computed relative to an internal control (100% inhibited lipid droplet deposition due to the presence of 20 uM Triacsin C), which was added to 32 wells/plate.
# % is scaled to controls: 0 for no effect and ±100 for the full control effect; potency is read from the fitted curve at half-maximal effect.
Compound,Potency,"lipid storage change, negative = inhibition"
Cc1cc(C(=O)COc2ccc(C#N)cc2)c(C)n1C1CC1,"inconclusive: 6510 nM [rising, partial curve]",–
Cc1c(C(=O)N2CCc3ccccc32)oc2ccccc12,–,inconclusive: 35.1%
CCOC(=O)c1ccc(N2C(=O)CC(Sc3nc(O)c(CC)c(=O)[nH]3)C2=O)cc1 (stereo not drawn),–,inconclusive: 47.8%
CS(=O)(=O)N1N=C(c2ccccc2)CC1c1ccc2c(c1)OCO2 (stereo not drawn),"inconclusive: 11600 nM [falling, partial curve]",–
CC(CCN1CCN=C1N(C)C)c1ccccc1 (stereo not drawn),"inconclusive: 580 nM [activator, partial curve, poor fit]",–
CC(=O)Nc1ccc(NC(=O)c2sc3nc4n(c(=O)c3c2C)CCCCC4)cc1,–,inconclusive: 6.98%
CCOC(=O)N/N=C/c1cccc(Cl)c1Cl,"inconclusive: 1640 nM [activator, full curve, poor fit]",–
COc1cc(OC)cc(C(=O)Nc2ccccc2N2CCOCC2)c1,"inconclusive: 2910 nM [activator, partial curve]",–
CCOc1ccc(NC(=O)Cc2ccc(NC3=NC4CS(=O)(=O)CC4S3)cc2)cc1 (stereo not drawn),–,inconclusive: -13.5%
NNC(=O)CN1C(c2ccc(Cl)cc2)=Nc2ccc(Br)cc2C1c1ccccc1 (stereo not drawn),–,inconclusive: -30.4%
O=C(NCC1CCCO1)c1cn(Cc2ccccc2)nc1-c1ccc(Cl)cc1 (stereo not drawn),–,inconclusive: 24.4%
COc1ccccc1CN(Cc1cc2cc(C)ccc2[nH]c1=O)Cc1nnnn1Cc1ccco1,–,inconclusive: 11.4%
CC1CCN(CC(=O)Nc2cc(C(F)(F)F)ccc2Cl)CC1,–,inconclusive: 2.08%
COc1ccc(C(CC(=O)N2CCN(c3ccccc3)CC2)c2c(OC)cc(OC)c3ccc(=O)oc23)cc1 (stereo not drawn),–,inconclusive: 9.97%
COc1ccccc1NC(=O)Nc1nc(CC(=O)N2CCN(c3ccccc3F)CC2)cs1,–,inconclusive
Cc1cc(=O)oc2c3c(cc(OCC(=O)NCC4CCC(C(=O)O)CC4)c12)OC(C)(C)CC3 (stereo not drawn),"inconclusive: 146 nM [falling, full curve, poor fit]",–
Cc1ccc(CN2CCN(C(=O)CC(C)C)CC2)cc1,–,inconclusive: -18%
O=C(NC1CC1)C1=C[C@@H](c2ccc3c(c2)OCO3)C[C@@H](OCCCCO)O1,–,inconclusive: -5.46%
Cc1ccc(C)c(CN2CCC(CNC(=O)Nc3ccc(C)c(C)c3)CC2)c1,"inconclusive: 103 nM [falling, full curve, poor fit]",–

Compound,Potency,"lipid storage change, negative = inhibition"
CCOC(=O)c1c(NC(=O)/C=C/C(=O)O)sc(C)c1-c1ccc(C(C)(C)C)cc1,–,inconclusive: -22.1%
COc1ccc(CCNc2ncccc2C#N)cc1OC,"inconclusive: 130 nM [falling, partial curve, poor fit]",–
CCc1n[n+](CC(=O)c2ccccc2)c(N)s1,–,inconclusive: -2.45%
Cc1ccccc1OCC(=O)OCC(=O)NC1CC1,"inconclusive: 4.1 nM [falling, full curve, poor fit]",–
COc1cc2c(cc1OC)C1CC(=O)C(CC(C)C)CN1CC2 (stereo not drawn),"inconclusive: 14600 nM [rising, partial curve, poor fit]",–
O=C(O)c1ncn(Cc2ccccc2)c1C(=O)O,"inconclusive: 3660 nM [falling, full curve]",–
Cc1cccc(-n2c(O)c(C=NC3CCS(=O)(=O)C3)c3ccccc3c2=O)c1 (stereo not drawn),"inconclusive: 1460 nM [activator, partial curve]",–
Cc1ccc(C(C[N+](=O)[O-])c2c(C)[nH]n(-c3ccccc3)c2=O)cc1 (stereo not drawn),"inconclusive: 29100 nM [falling, single point]",–
Cc1nn(-c2ccccc2)c2nc(=O)n(-c3ccccc3)cc12,–,inconclusive: -5.67%
Nc1ccc(S(=O)(=O)NC(=O)c2ccccc2)cc1,–,inconclusive: 1.95%
COc1cccc(-n2nnnc2SCC(=O)Nc2cccc(NC(C)=O)c2)c1,"inconclusive: 231 nM [rising, full curve, poor fit]",–
c1ccc(-n2ncc3c(NCc4ccccn4)ncnc32)cc1,"inconclusive: 731 nM [rising, single point]",–
CC(CN1CCOCC1)OC(=O)c1ccc(Cl)cc1Cl (stereo not drawn),–,inconclusive: -76.7%
CCOc1ccc(NC(=S)N2CCC(C(O)(c3ccccc3)c3ccccc3)CC2)cc1,–,inconclusive: 2.61%
O=C(Nc1ccc2c(c1)OCCO2)C1CCN(c2nnnn2-c2ccccc2)CC1,–,inconclusive: 23.2%
Cc1ccc(C(=O)Nc2ccccc2C(=O)N2CCCC2)cc1[N+](=O)[O-],"inconclusive: 29100 nM [falling, partial curve, poor fit]",–
COc1ccc(Nc2nc(Nc3ccc(OC)cc3)nc(SC3=NCCS3)n2)cc1,"inconclusive: 6510 nM [activator, single point]",–
COc1ccc(-c2cc(C(=O)N3CCOCC3)no2)cc1OC,–,inactive: 10.4%
Cc1ccc(CNC(C)c2ccccc2)cc1 (stereo not drawn),–,inconclusive: 5.98%

# Shown with bars between the fields: entries from further up.
Compound | Potency | lipid storage change, negative = inhibition
Cc1ccc(C(C[N+](=O)[O-])c2c(C)[nH]n(-c3ccccc3)c2=O)cc1 (stereo not drawn) | inconclusive: 29100 nM [falling, single point] | –
Cc1ccc(CNC(C)c2ccccc2)cc1 (stereo not drawn) | – | inconclusive: 5.98%
